From patent US20040229356A1, “In vitro mass production of human erythroid cells from the blood of normal donors and thalassemic patients” (ISTITUTO SUPERIORE DI SANITA, priority 2003, published 2004)
For at least one compound, name, drawing or mass did not settle the structure. Some entries share one result that the patent states for a list of compounds.

Tested on: CD34^+ cells
Experiment: Proliferative-phase liquid culture of CD34+ cells (total cell number, benzidine staining)
Assay type: cell-based, human
Details: estradiol or dexamethasone added to GFs (SCF, IL-3, EPO)
Method: Light-density cells were collected, washed with Hank's basal salt solution supplemented with 1% (w/v) bovine serum albumin, and either cultured directly or cryopreserved in 10% dimethyl sulfoxide (Sigma, St. Louis, Mo.). Frozen cadaveric marrow cells obtained from Northwest Tissue Center, Puget Sound Blood Bank (Seattle, Wash.) were thawed, washed, and incubated overnight in IMDM with 10% fetal calf serum on tissue culture plates to remove adherent cells.
Light-density cells and CD34^+ cells were cultured for the proliferative phase in Iscove's modified Dulbecco's medium (IMDM, Mascia Brunelli, Milan, Italy) containing 20% of fetal bovine serum (FBS, Hyclone, Logan, Utah) and supplemented with Stem Cell Factor (SCF, 10 ng/mL) (Amgen, Thousand Oaks, Calif.), Erythropoietin (EPO, 1 u/mL) (Epoetina alfa, Dompe Biotec, Milan, Italy), Interleukin-3 (IL-3, 1 ng/mL) (Bouty, Milan, Italy), dexamethasone (10^−6 M) (Sigma), and estradiol (10^−6 M) (Sigma). Light-density and CD34^+ cells were seeded at a concentration of 10^6 and 10^5 cells/mL, respectively.
Cell morphology was analyzed according to standard criteria on cytocentrifuged (Shandon, Astmoor, England) smears stained with May-Grumwald-Giemsa. […] The cell antigenic profile was analyzed by flow cytometry with a Coulter Elite ESP Cell Sorter (Coulter, Miami, Fla.) according to standard protocols. […] Cells incubated with the corresponding, irrelevant, isotype-matched antibodies were used for gating nonspecific fluorescence and dead cells were excluded by propidium iodide staining (5 μg/mL) (Sigma).
The total cell number observed in cultures of CD34^+ cells cultured for up to 14 days in the presence of the combination of SCF, IL-3 and EPO (growth factors, GFs), alone or with the further addition of estradiol or of dexamethasone, is presented in FIG. 1. In all three conditions analyzed, the total cell number per culture rose from 0.1×10^6 cells at day 0 to 10×10^6 at day 7 and continued to increase, reaching up to 100×10^6 by day 13. […]

C[C@@H]1C[C@H]2[C@@H]3CCC4=CC(=O)C=C[C@]4(C)[C@@]3(F)[C@@H](O)C[C@]2(C)[C@@]1(O)C(=O)CO [dexamethasone]
percent of benzidine positive cells (mature erythroid cells) (day 13 of proliferative phase): up to 40%

C[C@]12CC[C@@H]3c4ccc(O)cc4CC[C@H]3[C@@H]1CC[C@@H]2O [estradiol]
percent of benzidine positive cells (mature erythroid cells) (day 8 of proliferative phase): undetectable | percent of benzidine positive cells (mature erythroid cells) (day 13 of proliferative phase): up to 40%
